No constants are given. Whether binding was seen depends on the method and setting.
Target: E. coli RNA polymerase β subunit (E. coli) (UniProt P0A8V2)
Experiment: cryo-EM structure

Sequences of proteins named here, by UniProt entry; tags and fusion partners are left off.
UniProt P0A8V2: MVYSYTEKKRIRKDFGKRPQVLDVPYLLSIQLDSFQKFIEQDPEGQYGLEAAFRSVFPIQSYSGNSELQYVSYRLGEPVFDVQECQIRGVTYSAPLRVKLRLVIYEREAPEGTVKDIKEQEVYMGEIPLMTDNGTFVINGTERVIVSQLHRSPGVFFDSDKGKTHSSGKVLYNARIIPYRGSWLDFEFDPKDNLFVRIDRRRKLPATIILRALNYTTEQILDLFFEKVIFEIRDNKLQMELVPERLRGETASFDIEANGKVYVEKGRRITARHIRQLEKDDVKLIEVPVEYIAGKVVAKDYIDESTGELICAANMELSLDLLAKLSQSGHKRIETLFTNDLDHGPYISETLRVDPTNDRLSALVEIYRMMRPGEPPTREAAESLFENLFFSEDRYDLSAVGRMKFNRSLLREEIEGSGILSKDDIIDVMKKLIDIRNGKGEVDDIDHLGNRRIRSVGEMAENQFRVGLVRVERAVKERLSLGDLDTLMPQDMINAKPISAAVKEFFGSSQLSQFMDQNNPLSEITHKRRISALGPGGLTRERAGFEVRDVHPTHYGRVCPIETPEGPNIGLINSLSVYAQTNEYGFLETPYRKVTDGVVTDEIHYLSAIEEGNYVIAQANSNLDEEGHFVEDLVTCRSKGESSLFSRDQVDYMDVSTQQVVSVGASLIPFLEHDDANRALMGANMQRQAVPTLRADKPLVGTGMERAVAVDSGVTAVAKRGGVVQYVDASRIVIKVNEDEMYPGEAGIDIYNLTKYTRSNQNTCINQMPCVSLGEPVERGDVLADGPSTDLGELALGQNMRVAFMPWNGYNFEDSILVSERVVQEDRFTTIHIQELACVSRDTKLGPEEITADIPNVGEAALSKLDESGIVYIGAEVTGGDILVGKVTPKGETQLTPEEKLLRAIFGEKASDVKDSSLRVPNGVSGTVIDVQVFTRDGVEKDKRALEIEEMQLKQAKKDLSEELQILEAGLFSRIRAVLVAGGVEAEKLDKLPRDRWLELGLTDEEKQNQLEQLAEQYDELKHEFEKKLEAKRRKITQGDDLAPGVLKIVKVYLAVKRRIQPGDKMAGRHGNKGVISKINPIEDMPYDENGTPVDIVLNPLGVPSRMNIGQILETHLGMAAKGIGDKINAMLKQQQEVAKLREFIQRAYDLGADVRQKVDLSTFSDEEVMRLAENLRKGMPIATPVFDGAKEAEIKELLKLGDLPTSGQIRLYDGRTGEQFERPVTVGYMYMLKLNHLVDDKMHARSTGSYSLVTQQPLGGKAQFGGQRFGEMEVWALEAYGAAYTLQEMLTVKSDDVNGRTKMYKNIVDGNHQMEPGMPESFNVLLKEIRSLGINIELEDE
UniProt P23848: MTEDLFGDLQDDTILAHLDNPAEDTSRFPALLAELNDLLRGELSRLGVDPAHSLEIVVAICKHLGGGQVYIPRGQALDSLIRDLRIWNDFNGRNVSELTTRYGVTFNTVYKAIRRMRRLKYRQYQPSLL

“phage Mu middle operon regulator Mor (from UniProt P23848 1-129)” was tested, and the binding was “no binding”.
